Assay results from paper PMC12323131, “CSRP2 promotes the glioblastoma mesenchymal phenotype via p130Cas-mediated NF-κB and MAPK pathways” (Journal of Experimental & Clinical Cancer Research : CR, 2025).
No constants are given. Whether binding was seen depends on the method and setting. In cells and extracts the contact can be indirect. Some binding calls cover weakened binding; strength is not graded here. For part of these data: Where a sequence is shown, tags or fusion partners need not be part of it.

Tests used:
[1] = molecular target: T1, Cysteine-rich protein 2 (CSRP2), endogenous (human (endogenous in U87-MG, U251 and GBM patient tissue)) (UniProt Q16527); experiment: co-IP; U87-MG and U251 cell lysates or GBM tissue lysates; IP with an anti-CSRP2 antibody and IgG, protein A/G MagBeads, 4 °C overnight; blot with anti-CSRP2 and anti-p130Cas
T1 sequence: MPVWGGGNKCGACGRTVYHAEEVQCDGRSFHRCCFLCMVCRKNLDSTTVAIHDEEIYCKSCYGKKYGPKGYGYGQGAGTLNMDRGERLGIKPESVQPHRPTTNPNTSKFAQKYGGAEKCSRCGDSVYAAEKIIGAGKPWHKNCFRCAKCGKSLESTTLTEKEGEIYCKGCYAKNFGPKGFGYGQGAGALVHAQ

[2] = molecular target: T2, CSRP2, stably overexpressed in GBM cells (human) (UniProt Q16527); experiment: co-IP; U87-MG and U251 cells with stable CSRP2 overexpression, treated with 0.5 µM mitoxantrone (MTO) for 48 h; lysates IP with anti-CSRP2 and anti-p130Cas antibodies and IgG; blot with anti-CSRP2 and anti-p130Cas
T2 sequence: T1 sequence

CSRP2-Flag (human) = molecular target: T3, CSRP2-Flag (human) (UniProt Q16527); experiment: co-IP; HEK 293T cells co-transfected with CSRP2-Flag and p130Cas-HA; lysates IP with anti-Flag and anti-HA antibodies and IgG; blot with anti-Flag and anti-HA
T3 sequence: T1 sequence

B1: p130Cas, endogenous (protein, UniProt P56945 1-870)
chain: MNHLNVLAKALYDNVAESPDELSFRKGDIMTVLEQDTQGLDGWWLCSLHGRQGIVPGNRLKILVGMYDKKPAGPGPGPPATPAQPQPGLHAPAPPASQYTPMLPNTYQPQPDSVYLVPTPSKAQQGLYQVPGPSPQFQSPPAKQTSTFSKQTPHHPFPSPATDLYQVPPGPGGPAQDIYQVPPSAGMGHDIYQVPPSMDTRSWEGTKPPAKVVVPTRVGQGYVYEAAQPEQDEYDIPRHLLAPGPQDIYDVPPVRGLLPSQYGQEVYDTPPMAVKGPNGRDPLLEVYDVPPSVEKGLPPSNHHAVYDVPPSVSKDVPDGPLLREETYDVPPAFAKAKPFDPARTPLVLAAPPPDSPPAEDVYDVPPPAPDLYDVPPGLRRPGPGTLYDVPRERVLPPEVADGGVVDSGVYAVPPPAEREAPAEGKRLSASSTGSTRSSQSASSLEVAGPGREPLELEVAVEALARLQQGVSATVAHLLDLAGSAGATGSWRSPSEPQEPLVQDLQAAVAAVQSAVHELLEFARSAVGNAAHTSDRALHAKLSRQLQKMEDVHQTLVAHGQALDAGRGGSGATLEDLDRLVACSRAVPEDAKQLASFLHGNASLLFRRTKATAPGPEGGGTLHPNPTDKTSSIQSRPLPSPPKFTSQDSPDGQYENSEGGWMEDYDYVHLQGKEEFEKTQKELLEKGSITRQGKSQLELQQLKQFERLEQEVSRPIDHDLANWTPAQPLAPGRTGGLGPSDRQLLLFYLEQCEANLTTLTNAVDAFFTAVATNQPPKIFVAHSKFVILSAHKLVFIGDTLSRQAKAADVRSQVTHYSNLLCDLLRGIVATTKAAALQYPSPSAAQDMVERVKELGHSTQQFRRVLGQLAAA
binding [1]: binds | binding [2]: binds

B2: p130Cas-HA (protein, UniProt P56945 1-870)
chain: B1 chain
binding (CSRP2-Flag (human)): binds
